Results taken from the supplement of paper PMC4635364.
The list shows a part of the results. Repeats in this data set agree poorly, so a single value says little.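 Human fetal ventral-midbrain neural progenitor line ReNCell VM, differentiated without mitogens. Images stained for doublecortin (early neurons) or tyrosine hydroxylase (dopaminergic neurons) were scored by blinded raters against untreated wells (0 = no change). Repeats and both raters were averaged, and compounds averaging 2 or higher were picked as hits for retesting.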

What was measured:
ReNCell VM [1] = assay: neuronal differentiation score (DCX+ cell fraction vs untreated, manual image score) (score (-3 to 3)); higher = more neuronal differentiation; conditions: 2 uM, 2 weeks
ReNCell VM [2] = assay: dopaminergic neuron differentiation score (TH+ cell fraction vs untreated, manual image score) (score (0 to 3)); higher = more TH+ dopaminergic neuron differentiation; conditions: 2 uM, 4 weeks, BDNF 10 ng/ml + GDNF 10 ng/ml

CCCNC(C)(C)COC(=O)c1ccccc1
neuronal differentiation score (ReNCell VM [1]; library: Spectrum): inactive: 0
dopaminergic neuron differentiation score (ReNCell VM [2]; library: Spectrum): inactive: 0

CN(C)c1cnccn1
neuronal differentiation score (ReNCell VM [1]; library: Spectrum): inactive: 0
dopaminergic neuron differentiation score (ReNCell VM [2]; library: Spectrum): inactive: 0

CC(C)Cn1c(=O)n(C)c(=O)c2nc[nH]c21
neuronal differentiation score (ReNCell VM [1]; library: Spectrum): inactive: 0
dopaminergic neuron differentiation score (ReNCell VM [2]; library: Spectrum): inactive: 0

O=c1oc2ccccc2c(O)c1Cc1c(O)c2ccccc2oc1=O
neuronal differentiation score (ReNCell VM [1]; library: Spectrum): inactive: 1
dopaminergic neuron differentiation score (ReNCell VM [2]; library: Spectrum): inactive: 0

Cc1ccccc1CNc1ncnc2c1ncn2[C@@H]1O[C@H](CO)[C@@H](O)[C@H]1O [Metrifudil]
neuronal differentiation score (ReNCell VM [1]; library: LOPAC): inactive: 0
dopaminergic neuron differentiation score (ReNCell VM [2]; library: LOPAC): inactive: 0

O=C(O)CCNC(=O)c1ccccc1
neuronal differentiation score (ReNCell VM [1]; library: Spectrum): inactive: 0
dopaminergic neuron differentiation score (ReNCell VM [2]; library: Spectrum): inactive: 1

COc1ccc(-c2coc3cc(O)ccc3c2=O)cc1
neuronal differentiation score (ReNCell VM [1]; library: Spectrum): inactive: 0
dopaminergic neuron differentiation score (ReNCell VM [2]; library: Spectrum): inactive: 0

CCC(=O)O[C@]1(C(=O)CCl)[C@@H](C)C[C@H]2[C@@H]3CCC4=CC(=O)C=C[C@]4(C)[C@@]3(F)[C@@H](O)C[C@@]21C [Clobetasol propionate]
neuronal differentiation score (ReNCell VM [1]; library: Prestwick): inactive: 0
dopaminergic neuron differentiation score (ReNCell VM [2]; library: Prestwick): inactive: 0

COc1cc2nc(N3CCN(C(=O)C4COc5ccccc5O4)CC3)nc(N)c2cc1OC (stereo unspecified)
neuronal differentiation score (ReNCell VM [1]; library: Spectrum): inactive: 0
dopaminergic neuron differentiation score (ReNCell VM [2]; library: Spectrum): inactive: 0

CCCCC(CC)CN=C(N)N=C(N)NCCCCCCNC(N)=NC(N)=NCC(CC)CCCC (stereo unspecified)
neuronal differentiation score (ReNCell VM [1]; library: Spectrum): inactive: 0
dopaminergic neuron differentiation score (ReNCell VM [2]; library: Spectrum): inactive: 0

C[N+]1(C)CCC(OC(=O)C(c2ccccc2)c2ccccc2)CC1 [4-DAMP methiodide]
neuronal differentiation score (ReNCell VM [1]; library: LOPAC): inactive: 0
dopaminergic neuron differentiation score (ReNCell VM [2]; library: LOPAC): inactive: 0

OC[C@H]1O[C@@H](O[C@H]2[C@H](O)[C@@H](O)C(O)O[C@@H]2CO)[C@H](O)[C@@H](O)[C@H]1O (stereo partly specified)
neuronal differentiation score (ReNCell VM [1]; library: Spectrum): inactive: 0
dopaminergic neuron differentiation score (ReNCell VM [2]; library: Spectrum): inactive: 0

C=C[C@@H](C1=CC(=O)C(OC)=C(OC)C1=O)c1ccccc1
neuronal differentiation score (ReNCell VM [1]; library: Spectrum): inactive: 0
dopaminergic neuron differentiation score (ReNCell VM [2]; library: Spectrum): inactive: 0

CN(C(=O)C(Cl)Cl)c1ccc(OC(=O)c2ccco2)cc1 [Diloxanide furoate]
neuronal differentiation score (ReNCell VM [1]; library: Prestwick): inactive: 0
dopaminergic neuron differentiation score (ReNCell VM [2]; library: Prestwick): inactive: 0

CC(=O)Oc1c(C)c(C)c2c(c1C)CCC(C)(CCCC(C)CCCC(C)CCCC(C)C)O2 (stereo not drawn) [alpha-TOCHOPHERYL ACETATE]
neuronal differentiation score (ReNCell VM [1]; library: Spectrum): inactive: 0
dopaminergic neuron differentiation score (ReNCell VM [2]; library: Spectrum): inactive: 0

Cc1cc2c(cc1Cl)N(C(=O)Nc1cccc3ncccc13)CC2
neuronal differentiation score (ReNCell VM [1]; library: LOPAC): inactive: 0
dopaminergic neuron differentiation score (ReNCell VM [2]; library: LOPAC): inactive: 0

O=C[C@H](O)[C@H](O)CO
neuronal differentiation score (ReNCell VM [1]; library: Spectrum): inactive: 0
dopaminergic neuron differentiation score (ReNCell VM [2]; library: Spectrum): inactive: 0

CCOC(=O)CCC(=O)O[C@H]1[C@H](O[C@@H]2[C@@H](C)[C@H](O[C@H]3C[C@@](C)(OC)[C@@H](O)[C@H](C)O3)[C@@H](C)C(=O)O[C@H](CC)[C@@](C)(O)[C@H](O)[C@@H](C)C(=O)[C@H](C)C[C@@]2(C)O)O[C@H](C)C[C@@H]1N(C)C
neuronal differentiation score (ReNCell VM [1]; library: Spectrum): inactive: 0
dopaminergic neuron differentiation score (ReNCell VM [2]; library: Spectrum): inactive: 0

CC(C)NC[C@@H](O)COc1cccc2ccccc12
neuronal differentiation score (ReNCell VM [1]; library: Spectrum): inactive: 0
dopaminergic neuron differentiation score (ReNCell VM [2]; library: Spectrum): inactive: 0

C#CCN(C)Cc1ccccc1
neuronal differentiation score (ReNCell VM [1]; library: Spectrum): inactive: 0
dopaminergic neuron differentiation score (ReNCell VM [2]; library: Spectrum): inactive: 0

O=[N+]([O-])c1cccc2cn[nH]c12
neuronal differentiation score (ReNCell VM [1]; library: Spectrum): inactive: 0
dopaminergic neuron differentiation score (ReNCell VM [2]; library: Spectrum): inactive: 0

COc1cc2ncnc(Nc3cccc(Cl)c3)c2cc1OC [Tyrphostin AG 1478]
neuronal differentiation score (ReNCell VM [1]; library: LOPAC): inactive: 0
dopaminergic neuron differentiation score (ReNCell VM [2]; library: LOPAC): inactive: 0

CCOC(=O)C1=C(C)NC(=S)NC1c1cccc(O)c1 (stereo unspecified) [Monastrol]
neuronal differentiation score (ReNCell VM [1]; library: Tocriscreen): inactive: 0
dopaminergic neuron differentiation score (ReNCell VM [2]; library: Tocriscreen): inactive: 0

CN(N=O)C(=O)N[C@@H](C=O)[C@@H](O)[C@H](O)[C@H](O)CO [Streptozocin]
neuronal differentiation score (ReNCell VM [1]; library: Tocriscreen): inactive: 0
dopaminergic neuron differentiation score (ReNCell VM [2]; library: Tocriscreen): inactive: 0

CN[C@H]1CC[C@@H](c2ccc(Cl)c(Cl)c2)c2ccccc21
neuronal differentiation score (ReNCell VM [1]; library: Spectrum): inactive: 0
dopaminergic neuron differentiation score (ReNCell VM [2]; library: Spectrum): inactive: 0

CC(=O)Nc1ccc(O)cc1
neuronal differentiation score (ReNCell VM [1]; library: Spectrum): inactive: 1
dopaminergic neuron differentiation score (ReNCell VM [2]; library: Spectrum): inactive: 0

COC(=O)c1c(C)cc(O)cc1O
neuronal differentiation score (ReNCell VM [1]; library: Spectrum): inactive: 0
dopaminergic neuron differentiation score (ReNCell VM [2]; library: Spectrum): inactive: 0

CCC(=O)O[C@]1(C(=O)CCl)[C@@H](C)C[C@H]2[C@@H]3CCC4=CC(=O)C=C[C@]4(C)[C@@]3(F)[C@@H](O)C[C@@]21C
neuronal differentiation score (ReNCell VM [1]; library: Spectrum): inactive: 0
dopaminergic neuron differentiation score (ReNCell VM [2]; library: Spectrum): inactive: 0

C[C@@H]1O[C@@H](O[C@H]2[C@H](Oc3cc(O)c4c(c3)O[C@H](c3ccc(O)cc3)CC4=O)O[C@H](CO)[C@@H](O)[C@@H]2O)[C@H](O)[C@H](O)[C@H]1O
neuronal differentiation score (ReNCell VM [1]; library: Spectrum): inactive: 0
dopaminergic neuron differentiation score (ReNCell VM [2]; library: Spectrum): inactive: 0

Cc1onc(-c2ccccc2Cl)c1C(=O)N[C@@H]1C(=O)N2[C@@H]1SC(C)(C)[C@@H]2C(=O)O
neuronal differentiation score (ReNCell VM [1]; library: Spectrum): inactive: 0
dopaminergic neuron differentiation score (ReNCell VM [2]; library: Spectrum): inactive: 0

Cc1cccc2c3c(ccc12)C1=C(C(=O)C3=O)[C@@H](C)CO1
neuronal differentiation score (ReNCell VM [1]; library: Spectrum): inactive: 0
dopaminergic neuron differentiation score (ReNCell VM [2]; library: Spectrum): inactive: 0

S=P(N1CC1)(N1CC1)N1CC1
neuronal differentiation score (ReNCell VM [1]; library: Spectrum): inactive: 0
dopaminergic neuron differentiation score (ReNCell VM [2]; library: Spectrum): inactive: 0

CC(=O)N(O)CCCCCNC(=O)CCC(=O)N(O)CCCCCNC(=O)CCC(=O)N(O)CCCCCN
neuronal differentiation score (ReNCell VM [1]; library: Spectrum): inactive: 0
dopaminergic neuron differentiation score (ReNCell VM [2]; library: Spectrum): inactive: 0
